The values below come from article PMC7289602, “Measuring ligand-cell surface receptor affinities with axial line-scanning fluorescence correlation spectroscopy” (eLife, 2020).

Amino acid sequences for entries named in this document (tags omitted). Residues count along the entry.
UniProt O75581, residues 20-1613: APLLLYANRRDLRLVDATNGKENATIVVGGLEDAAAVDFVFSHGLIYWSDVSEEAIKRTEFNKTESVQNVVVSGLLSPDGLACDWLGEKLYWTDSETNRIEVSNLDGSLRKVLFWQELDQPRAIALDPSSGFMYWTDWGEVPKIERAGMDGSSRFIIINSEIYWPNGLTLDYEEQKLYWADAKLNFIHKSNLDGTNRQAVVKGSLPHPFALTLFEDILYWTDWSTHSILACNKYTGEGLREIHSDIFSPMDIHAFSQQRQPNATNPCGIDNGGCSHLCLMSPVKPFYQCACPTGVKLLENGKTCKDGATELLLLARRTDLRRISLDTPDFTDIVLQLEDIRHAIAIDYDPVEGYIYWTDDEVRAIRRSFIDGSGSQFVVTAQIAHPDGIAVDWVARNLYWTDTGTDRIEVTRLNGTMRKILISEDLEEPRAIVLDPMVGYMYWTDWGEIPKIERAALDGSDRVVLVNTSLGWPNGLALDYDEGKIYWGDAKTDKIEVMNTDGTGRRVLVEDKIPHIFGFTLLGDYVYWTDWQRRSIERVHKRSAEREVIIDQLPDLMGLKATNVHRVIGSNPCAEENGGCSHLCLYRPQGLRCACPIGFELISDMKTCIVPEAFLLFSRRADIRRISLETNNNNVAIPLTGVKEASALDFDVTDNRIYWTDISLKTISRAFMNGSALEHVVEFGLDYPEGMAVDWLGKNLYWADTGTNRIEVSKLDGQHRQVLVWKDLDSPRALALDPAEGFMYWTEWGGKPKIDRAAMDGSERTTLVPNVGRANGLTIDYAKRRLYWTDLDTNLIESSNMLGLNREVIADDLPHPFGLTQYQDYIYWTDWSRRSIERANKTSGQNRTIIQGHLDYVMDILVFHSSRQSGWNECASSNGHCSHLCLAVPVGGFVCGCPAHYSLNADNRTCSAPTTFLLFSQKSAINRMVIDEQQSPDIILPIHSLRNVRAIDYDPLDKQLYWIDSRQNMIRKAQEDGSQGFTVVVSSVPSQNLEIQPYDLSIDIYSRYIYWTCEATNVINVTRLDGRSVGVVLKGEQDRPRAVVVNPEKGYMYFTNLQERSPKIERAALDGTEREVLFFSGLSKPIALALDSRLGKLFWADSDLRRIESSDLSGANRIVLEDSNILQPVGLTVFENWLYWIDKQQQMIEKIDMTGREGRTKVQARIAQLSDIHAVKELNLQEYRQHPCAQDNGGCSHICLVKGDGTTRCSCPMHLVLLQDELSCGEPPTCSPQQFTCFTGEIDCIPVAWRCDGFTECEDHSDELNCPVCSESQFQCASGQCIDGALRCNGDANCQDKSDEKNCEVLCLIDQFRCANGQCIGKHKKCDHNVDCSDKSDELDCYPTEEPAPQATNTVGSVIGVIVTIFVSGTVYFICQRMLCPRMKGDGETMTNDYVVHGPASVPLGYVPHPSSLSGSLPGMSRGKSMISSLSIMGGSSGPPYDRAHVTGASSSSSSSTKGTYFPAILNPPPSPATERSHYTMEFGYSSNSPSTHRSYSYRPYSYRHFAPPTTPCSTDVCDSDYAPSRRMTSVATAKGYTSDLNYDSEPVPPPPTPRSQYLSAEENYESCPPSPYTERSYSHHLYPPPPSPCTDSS
UniProt P17677, residues 1-20: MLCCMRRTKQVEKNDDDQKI

This assay deals with LRP6-mCherry, transiently expressed in HEK293T cells (human) (UniProt O75581). Put plainly: dual-color axial line-scanning fluorescence cross-correlation spectroscopy (axial lsFCS); control: live HEK293T cells transiently co-expressing LRP6-mCherry and Mem-eGFP, at least nine measurements of 60 s.

These are yes or no findings as the source states them, for the method shown.

For “Mem-eGFP (membrane marker peptide, the 20 N-terminal residues of neuromodulin, fused to eGFP) (from UniProt P17677 1-20)”, the binding result is on record as “no binding”.
